# Experimental data taken from PubChem BioAssay AID493014 (National Center for Advancing Translational Sciences (NCATS), 2011).
# The list shows a part of the results. The main result of the screen is listed elsewhere. These columns were measured beside it and carry no call. Most of these compounds were active or inconclusive in the main read-out, so they are no random draw. The note in brackets gives the kind of curve behind each potency; many fits are weak.
# Assay: qHTS Assay to Find Inhibitors of Chronic Active B-Cell Receptor Signaling
# Settings: ABC-DLBCL IkBa-CBG/CBR reporter, luminescence ratio (green luciferase fused to IkBa over red control in TMD8 lymphoma cells), 4 h
# Procedure, shortened: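 Doxycycline induced both beetle luciferases in TMD8 lymphoma cells; IKK-driven degradation limits the IkappaBalpha-fused green signal, while red luminescence normalises for cell number and nonspecific effects. Compounds tested up to 46 uM, 4 hrs.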
# [1] = measured here: CBR red luminescence, cell number
# [2] = measured here: IkBa-CBG green luminescence
Compound,AC50 [1],AC50 [2]
O=C(NCc1ccccc1)C(=O)NCC1OCCN1S(=O)(=O)c1ccc2c(c1)OCCO2 (configuration not stated),"23.1 µM [rising, single point]",–
COC(=O)c1ccc(CO/N=C/c2ccc(OC)cc2)o1,"14.1 µM [falling, single point]",–
CSc1ccccc1NC(=O)CN(C)CC(=O)Nc1c(F)cccc1F,"2.91 µM [rising, full curve, poor fit]",–
COc1cc(OC)cc(C(=O)NCCSCc2ccc(Cl)cc2)c1,"15.8 µM [falling, single point]",–
O=C1C(=C(c2ccccc2)c2ccccc2)Nc2ccccc21,"23.1 µM [falling, single point]",–
O=C(Nc1nccs1)c1ccc(CSc2ccccc2)o1,"10 µM [falling, partial curve, poor fit]",–
O=C(c1c(F)cccc1F)N1CCN(S(=O)(=O)c2ccc3c(c2)OCCO3)CC1,"16.4 µM [falling, partial curve, poor fit]",–
Cc1cccc(-c2nc(CSCC(=O)N3CCN(c4ccccn4)CC3)c(C)o2)c1,"11.2 µM [falling, partial curve, poor fit]",–
O=S(=O)(NC1CCC(NS(=O)(=O)c2c(F)cccc2F)CC1)c1ccc2c(c1)OCCO2 (configuration not stated),"23.1 µM [rising, single point]",–
O=C(NNC(=O)c1cccs1)c1ccccc1,"25.1 µM [falling, single point]",–
O=C(NC(=S)Nc1ccccc1Cl)C1CC1,"8.91 µM [falling, partial curve]","12.6 µM [falling, partial curve, poor fit]"
CSc1ccccc1NC(=O)Nc1ccc(F)c(Cl)c1,"0.316 µM [falling, full curve, poor fit]",–
COc1ccc(CCNC(=S)Nc2cccc(C)c2)cc1,"0.731 µM [rising, full curve, poor fit]",–
CCn1c(-c2cc(-c3cccc(OC)c3)nc3ccccc23)n[nH]c1=S,"32.6 µM [falling, single point]",–
CC12CCC(C(=O)Nc3ccccc3Br)(C/C1=N\O)C2(C)C (configuration not stated),"11.2 µM [rising, partial curve, poor fit]",–
COC(=O)c1c(NC(=O)CS(=O)(=O)c2ccccc2)sc(C)c1C,"1.46 µM [falling, full curve]",–
CCCCCC(=O)N/N=C/c1ccco1,"1.64 µM [rising, full curve, poor fit]",–
O=C1CC(c2c[nH]c3ccccc23)C(=O)N1 (configuration not stated),"29.1 µM [falling, single point]",–
COc1ccc(OC)c(S(=O)(=O)NNC(=S)Nc2ccc3c(c2)OCO3)c1,"0.355 µM [rising, full curve, poor fit]",–
COc1cccc(C2=NN(C(=O)c3ccco3)C(O)(C(F)(F)F)C2)c1 (configuration not stated),"11.2 µM [falling, partial curve, poor fit]",–
CC1(c2ccccc2)NC(=O)N(CC(=O)NNC(=O)c2cccc(Cl)c2)C1=O (configuration not stated),"0.517 µM [rising, partial curve, poor fit]",–

Compound,AC50 [1],AC50 [2]
Cc1cc(C)n(-c2nc(Nc3ccccc3C)nc(-n3nc(C)cc3C)n2)n1,"0.631 µM [falling, full curve, poor fit]",–
CCCCC(=O)Nc1cc(C(=O)NCCc2ccccc2)ccc1Cl,"35.5 µM [falling, single point]",–
CC(C)S(=O)(=O)N1CCCC(C(=O)c2cccc(Cl)c2)C1 (configuration not stated),"12.6 µM [rising, partial curve, poor fit]",–
CCN1C(=O)S/C(=C\c2ccc(N3CCOCC3)cc2C)C1=O,"0.708 µM [rising, full curve, poor fit]",–
Cc1nc(N)sc1C(=O)NN,"0.631 µM [falling, partial curve, poor fit]",–
CCOC(=O)c1cc(-c2cccs2)[nH]n1,"1.58 µM [rising, partial curve, poor fit]",–
O=C(O)c1ccccc1N/N=C\c1ccnc2ccccc12,"0.1 µM [rising, full curve, poor fit]",–
CC(C)Oc1ccc(C(=O)Nc2ccc3c(c2)n(C)c(=O)n3C)cc1,"14.1 µM [rising, single point]",–
Cc1ccc(Cn2c(SCC(=O)N/N=C/c3ccc(C)o3)nc3ccccc32)cc1,"16.4 µM [falling, partial curve, poor fit]",–
COc1cc(C(=O)COC(=O)C2CCN(c3ccc(C(F)(F)F)cn3)CC2)ccc1OC(F)F,"29.1 µM [rising, single point]",–
Cc1ccc(-c2nc(N)sc2CC(=O)OCC(=O)NCCC(C)C)cc1,"1.3 µM [rising, partial curve, poor fit]",–
N=C1C(c2nc3ccccc3s2)=C(O)CN1CCCO,"0.206 µM [rising, full curve, poor fit]",–
CCOC(=O)c1nnn(-c2nn3nnnc3c3ccccc23)c1C,"35.5 µM [falling, single point]",–
CCOC(=O)c1c(-c2ccccc2)oc2ccc(O)c(CN3CCOCC3)c12,"0.082 µM [rising, full curve, poor fit]",–
CCCC(=O)Nc1nnc(SCC)s1,"1.84 µM [rising, partial curve]",–
Cc1cccc2sc(NC(=O)CCNS(=O)(=O)c3cccs3)nc12,"7.08 µM [falling, full curve, poor fit]",–
O=C(Nc1ccc([N+](=O)[O-])cc1)c1ccccc1F,"15.8 µM [falling, partial curve, poor fit]",–
CCOC(=O)N1CCN(S(=O)(=O)c2c(C)[nH]c(=O)[nH]c2=O)CC1,"1.03 µM [rising, full curve, poor fit]",–
Cc1ccc(S(=O)(=O)N2CCN(C(=O)c3ccccc3OCc3c(C)noc3C)CC2)cc1C,"23.1 µM [falling, partial curve, poor fit]",–
COc1ccc(NC(=S)NNc2ccc([N+](=O)[O-])cc2S(=O)(=O)Nc2ccc(C)cc2C)cc1,"20.6 µM [falling, single point]",–
Cn1c(CC(=O)NNC(=O)c2ccc(Cl)nc2)nc2ccccc21,"0.058 µM [rising, full curve, poor fit]",–

# An excerpt from above in order of molecular weight, rising:
Compound,AC50 [1],AC50 [2]
Cc1nc(N)sc1C(=O)NN,"0.631 µM [falling, partial curve, poor fit]",–
CCCC(=O)Nc1nnc(SCC)s1,"1.84 µM [rising, partial curve]",–
O=C(Nc1ccc([N+](=O)[O-])cc1)c1ccccc1F,"15.8 µM [falling, partial curve, poor fit]",–
O=C(O)c1ccccc1N/N=C\c1ccnc2ccccc12,"0.1 µM [rising, full curve, poor fit]",–
CC(C)S(=O)(=O)N1CCCC(C(=O)c2cccc(Cl)c2)C1 (configuration not stated),"12.6 µM [rising, partial curve, poor fit]",–
CCN1C(=O)S/C(=C\c2ccc(N3CCOCC3)cc2C)C1=O,"0.708 µM [rising, full curve, poor fit]",–
Cn1c(CC(=O)NNC(=O)c2ccc(Cl)nc2)nc2ccccc21,"0.058 µM [rising, full curve, poor fit]",–
CCCCC(=O)Nc1cc(C(=O)NCCc2ccccc2)ccc1Cl,"35.5 µM [falling, single point]",–
Cc1cc(C)n(-c2nc(Nc3ccccc3C)nc(-n3nc(C)cc3C)n2)n1,"0.631 µM [falling, full curve, poor fit]",–
Cc1ccc(-c2nc(N)sc2CC(=O)OCC(=O)NCCC(C)C)cc1,"1.3 µM [rising, partial curve, poor fit]",–
CCOC(=O)c1c(-c2ccccc2)oc2ccc(O)c(CN3CCOCC3)c12,"0.082 µM [rising, full curve, poor fit]",–
Cc1cccc2sc(NC(=O)CCNS(=O)(=O)c3cccs3)nc12,"7.08 µM [falling, full curve, poor fit]",–
Cc1ccc(Cn2c(SCC(=O)N/N=C/c3ccc(C)o3)nc3ccccc32)cc1,"16.4 µM [falling, partial curve, poor fit]",–
Cc1ccc(S(=O)(=O)N2CCN(C(=O)c3ccccc3OCc3c(C)noc3C)CC2)cc1C,"23.1 µM [falling, partial curve, poor fit]",–
COc1cc(C(=O)COC(=O)C2CCN(c3ccc(C(F)(F)F)cn3)CC2)ccc1OC(F)F,"29.1 µM [rising, single point]",–
COc1ccc(NC(=S)NNc2ccc([N+](=O)[O-])cc2S(=O)(=O)Nc2ccc(C)cc2C)cc1,"20.6 µM [falling, single point]",–

# Continuation:

Compound,AC50 [1],AC50 [2]
COc1ccc2c(c1)CC/C(=C\Nc1ccc3c(c1)OCO3)C2=O,"16.4 µM [falling, partial curve]",–
CC(=O)NCC(=O)OCC(=O)Nc1nc(-c2ccccc2)cs1,"35.5 µM [falling, single point]",–
CCCN(CC(=O)Nc1cc(Cl)ccc1Cl)C(=O)/C=C/c1ccco1,"18.4 µM [falling, single point]",–
COC(=O)c1cc(OC)c(OC)cc1NC(=O)c1cc(C(C)(C)C)oc1C,"3.55 µM [rising, partial curve, poor fit]",–
O=S(=O)(NC1c2cccc3cccc(c23)C1N1CCNCC1)c1ccc(Cl)cc1 (configuration not stated),"22.4 µM [falling, single point]",–
CCOc1c(Br)cc(/C=N\NC(=O)c2ccccc2)cc1OC,"29.1 µM [falling, single point]",–
C/C(=N\NC(=S)NCc1ccccc1)c1cccs1,"22.4 µM [falling, single point]","3.98 µM [falling, single point]"
O=C(NC1CCCC1)c1cccc2c1C(=O)c1ccc(/C=C/c3ccccc3)cc1S2(=O)=O,"0.184 µM [falling, full curve, poor fit]","9.2 µM [rising, partial curve, poor fit]"
COCc1cc(=O)[nH]c(SCC(=O)c2ccccc2)n1,"11.2 µM [falling, partial curve]",–
CC1(C)Cc2c(cnn2-c2cccc(F)c2)C(NC(=O)CSc2ccccn2)C1 (configuration not stated),"35.5 µM [falling, partial curve, poor fit]",–
CCCOC(=O)c1[nH]c2c(c1C)C(=O)CC(c1cccs1)C2 (configuration not stated),"7.31 µM [rising, partial curve]","5.17 µM [falling, partial curve, poor fit]"
CCc1ccc(NC(=O)CCn2ccnc2C)cc1,"6.51 µM [rising, single point]",–
Cc1ccc(-c2nc(N3CCN(C)CC3)c3ccccc3n2)cc1,"3.98 µM [rising, partial curve, poor fit]",–
CCC12CN3CCN(CC(C3)/C1=N\NC(=O)c1ccc(Cl)cc1)C2,"7.94 µM [falling, partial curve, poor fit]",–
O=C(COc1ccc(Cl)cc1)Nc1ccccc1C(=O)NCc1cccnc1,"11.2 µM [falling, partial curve, poor fit]",–
Cc1c2c(n3c(nc4ccccc43)c1C#N)N(CCN(C)C)CC2,–,"3.16 µM [rising, full curve, poor fit]"
O=C1CSC(c2ccc(F)cc2)N1c1nc2ccccc2s1 (configuration not stated),"32.6 µM [falling, partial curve, poor fit]",–
CC(C)NC(=O)CCCc1c[nH]c2ccccc12,"35.5 µM [falling, partial curve, poor fit]",–
CCC(CC)C(=O)Nc1cccc(-c2nc3ccccc3o2)c1,"2.91 µM [rising, full curve, poor fit]",–
COCCCNC(=O)c1ccc(S(=O)(=O)c2ccc(Cl)cc2)c(NC(C)=O)c1,"0.0891 µM [rising, full curve, poor fit]",–
COc1cccc(CNC(=O)CCCn2ccc3cc(S(=O)(=O)N4CCCC4)ccc32)c1,"15.8 µM [falling, single point]",–
